# Primary screen of a compound library

The chains behind the UniProt entries cited, without tags or fusion partners.
UniProt E9BF75, entry or part of it: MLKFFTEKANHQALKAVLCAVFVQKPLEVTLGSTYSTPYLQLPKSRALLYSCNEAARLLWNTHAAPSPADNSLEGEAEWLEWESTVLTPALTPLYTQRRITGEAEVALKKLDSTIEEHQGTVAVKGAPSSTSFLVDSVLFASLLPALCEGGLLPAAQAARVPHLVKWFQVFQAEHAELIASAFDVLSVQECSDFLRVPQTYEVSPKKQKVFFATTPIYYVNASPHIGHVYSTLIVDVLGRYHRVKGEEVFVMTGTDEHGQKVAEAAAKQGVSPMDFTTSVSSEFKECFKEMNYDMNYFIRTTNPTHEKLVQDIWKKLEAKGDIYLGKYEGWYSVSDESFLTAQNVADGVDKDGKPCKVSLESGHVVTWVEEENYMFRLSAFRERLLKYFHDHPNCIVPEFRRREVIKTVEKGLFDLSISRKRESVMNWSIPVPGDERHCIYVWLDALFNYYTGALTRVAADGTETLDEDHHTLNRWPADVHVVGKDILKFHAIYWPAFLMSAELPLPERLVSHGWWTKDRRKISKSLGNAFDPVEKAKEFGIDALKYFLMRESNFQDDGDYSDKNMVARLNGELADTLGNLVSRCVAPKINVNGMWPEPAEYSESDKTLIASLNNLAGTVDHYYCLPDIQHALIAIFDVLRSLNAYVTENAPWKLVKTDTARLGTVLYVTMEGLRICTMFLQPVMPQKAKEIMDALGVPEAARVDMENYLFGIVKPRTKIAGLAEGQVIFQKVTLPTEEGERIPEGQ

Source: ChEMBL document CHEMBL3988442, “University of Dundee, Small-Polar-MMV Screening Library” (2021).

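Primary screen of methionyl-tRNA synthetase; the read-out is not stated. Target: Methionyl-tRNA synthetase (putative), Leishmania donovani (UniProt E9BF75). The test concentration is not given. The values are filed as inhibition. Size under these conditions: about 68,000 compounds, about 24 of them at 50% or above in at least one test.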

All values are in %.
The record does not define 0% and 100%; most values in the screen are far below 50% and negative numbers occur (in some assays of this library far below -100).
This is an unselected part of the compounds tested.

| # | Compound | Inhibition |
|---|---|---|
| 1 | `Cn1cc(C[C@H]2[C@H](O)CCN2CC2CC2)cn1` | 9.091 |
| 2 | `COc1cccc(-c2noc3c2CN(c2ncnc4c2CCC4)CC3)c1` | 52.33 |
| 3 | `CC(C)c1cc(N2CCN(c3ccc(O)cc3)CC2)n2nccc2n1` | 24.44 |
| 4 | `COc1cc(C(=O)N2C[C@H]3CC[C@@H]2CN(Cc2cscn2)C3)ccn1` | 16.21 |
| 5 | `CCCC1(CO)CCCN(c2ncccc2F)C1` (stereo not given) | 11.96 |
| 6 | `O=C(CCn1ccc2ccccc21)N1CCC(Nc2cccnn2)CC1` | 12.15 |
| 7 | `CC(NCCn1c(=O)oc2ccccc21)c1ccccn1` (stereo not given) | 2.899 |
| 8 | `COCCOCC(=O)N(Cc1cccc(C)c1)C(C)C` | 16.12 |
| 9 | `CC(C)CN1C(=O)CO[C@@H]2CNC[C@H]21` | 17.93 |
| 10 | `Cc1nc(CCNC(=O)Nc2cc(C(F)(F)F)c[nH]c2=O)cs1` | 19.55 |
| 11 | `O=c1n(CCNCc2ccc(-c3ccccc3)cc2)nc2ccccn12` | 25.5 |
| 12 | `COc1ccc(F)c(CN2CC(=O)N(c3ccccc3C)CC2C)c1` (stereo not given) | 5.602 |
| 13 | `Cc1cc(NCc2ccc(C#N)cc2)n2nc(C)cc2n1` | 10.09 |
| 14 | `Cc1cc(C(=O)N2CCCC(c3nncn3C)C2)no1` (stereo not given) | 11.11 |
| 15 | `O=C(c1cnc(NCCC2CCCO2)c(Cl)c1)N1CCOCC1` (stereo not given) | 14.38 |
| 16 | `Cc1ccc(CC(=O)N2CCCC2Cn2nc(C)cc2C)cn1` (stereo not given) | 9.509 |
| 17 | `O=C(NCCCN1CCOCC1)c1cccc(OCc2ccccc2)c1` | 25.41 |
| 18 | `O=C(Nc1ccccc1)C1=NOC2(CCNCC2)C1` | 8.759 |
| 19 | `COc1cccc(C(=O)N2CCCC(c3cc(C)[nH]n3)C2)c1OC` (stereo not given) | 13.07 |
| 20 | `CCN(CC)C(=O)Cn1c(C)cc2nc(SC)n(CC(C)C)c(=O)c21` | 12.42 |
| 21 | `Cc1cnn(CCNCc2cccnc2)c1` | 16.67 |
| 22 | `CS(=O)(=O)N1CCOCC12CCN(Cc1ccoc1)CC2` | 13.11 |
| 23 | `O=C(c1nc(=O)[nH][nH]1)N1CCCC(c2cc(C(F)(F)F)[nH]n2)C1` (stereo not given) | 14.92 |
| 24 | `O=C([C@@H]1COC[C@H]2CN(C3CCCC3)C[C@H]21)N1CCCO1` | 8.795 |
| 25 | `Cc1ncc(C)c(N2CCC(Cc3ccc(Cl)cc3)(C(=O)O)CC2)n1` | 26.98 |
| 26 | `NC(=O)c1cccc(CCNCc2cnc(-c3cccs3)s2)c1` | 15.19 |
| 27 | `CC(C)(C)C(=O)N1CCCC1c1nccnc1Cl` (stereo not given) | 13.29 |
| 28 | `COc1ncnc(N)c1CNCCc1ccccc1` | 20.95 |
| 29 | `CCCc1nnc(N2CC[C@@](O)(C3CCOCC3)[C@H](C)C2)s1` | -1.529 |
| 30 | `O=C(NCCc1ccco1)Nc1cc(C(F)(F)F)c[nH]c1=O` | 13.65 |
| 31 | `COc1ccccc1CCC(=O)N1C[C@H](c2ccccc2)[C@@H](N)C1` | 12.73 |
| 32 | `Cc1cc(C(=O)NCc2cccnc2OC(C)C)no1` | 10.46 |
| 33 | `Cn1ncnc1CNC(=O)N(CCCO)C1CCc2ccccc21` (stereo not given) | 18.57 |
| 34 | `Cc1ncsc1C(=O)NCC1SCCc2ccccc21` (stereo not given) | -3.014 |
| 35 | `COCc1nn(C(C)C)c2c1CCN(Cc1cccs1)C2` | 12.5 |
| 36 | `CN(C)CCN1CCCC12CCN(C(=O)c1cccn1C)CC2` | 9.013 |
| 37 | `CCC(Nc1cccc(Oc2ccccn2)c1)C(N)=O` (stereo not given) | 5.836 |
| 38 | `O=C(CNc1ccccc1Cl)Nc1cc(-n2cnnn2)ccc1F` | 11.38 |
| 39 | `CC(C)N(C)Cc1cncc2c1CCN(C(=O)c1ccc[nH]1)C2` | 4.498 |
| 40 | `COCC(C)(C#N)NC(=O)COc1ccccc1` (stereo not given) | 8.014 |
| 41 | `CN(C)C[C@@H]1CN(C(=O)c2cc(F)ccc2F)C[C@@H]1CO` | -1.781 |
| 42 | `c1ccc(COc2ccccc2NC2CCOCC2)nc1` | -6.015 |
| 43 | `CC(C)n1c(=O)nc2n1C(=O)N(c1ccc(F)cc1)C2` | 14.08 |
| 44 | `Cc1cc(Cl)ccc1C(=O)N1C[C@H](C2CC2)[C@@H](N)C1` | 6.835 |
| 45 | `CO[C@H]1C[C@@H](O)C12CCN(CCOc1ccc(Cl)cc1)CC2` | 19.52 |
| 46 | `NC(=O)c1csc(N2CCN(Cc3cccc4nsnc34)CC2)n1` | 2.506 |
| 47 | `CC1CCN(S(=O)(=O)NCc2ccccc2Cn2cccn2)CC1` | 8.547 |
| 48 | `CN1CCC2(Cc3ccccc3CN(C(=O)Cc3cccc(Cl)c3)C2)C1` (stereo not given) | 4 |
| 49 | `CCS(=O)(=O)N1CCc2c(CN3CCOCC3)cncc2C1` | 15.3 |
| 50 | `NCc1cn(-c2ccccc2C(=O)NCc2cccc(Cl)c2)cn1` | 10.84 |
| 51 | `CCc1nc2ccccc2n1C(CC)C(=O)N(C)Cc1noc(C)n1` (stereo not given) | 9.859 |
| 52 | `COCCN(Cc1cccc(O)c1)CC1CC1` | -0.5831 |
| 53 | `Cc1nc(C)c(C(=O)N2CCC(Nc3cccnc3)CC2)s1` | 5.5 |
| 54 | `OC(CN1CCC(c2ccn[nH]2)CC1)c1cccc(F)c1` (stereo not given) | 7.981 |
| 55 | `COc1ccc(CSc2nnc(N)n2C2CC2)cc1Cl` | 18.21 |
| 56 | `Cc1nc(C)n(CC2CCCN2CC(=O)NCCC2=CCCCC2)n1` (stereo not given) | 13.31 |
| 57 | `COc1ccc2c(C)c(C(=O)N3CCC(NC(C)=O)C3)oc2c1` (stereo not given) | 9.157 |
| 58 | `CCc1ccccc1Nc1noc2c1CN(C(=O)CCOC)CC2` | 4.502 |
| 59 | `CC(=O)NCCN1CCC(c2cccs2)CC1` | 9.36 |
| 60 | `O=C1CCSCC(C(=O)N2CCOCC2)N1` (stereo not given) | 12.32 |
| 61 | `COc1cc(C(C)=O)ccc1SCC(=O)Nc1cc(C)n[nH]1` | 16.55 |
| 62 | `O=C1CCc2cc(C(=O)NCc3ccc(-n4cncn4)nc3)ccc2N1` | 7.19 |
| 63 | `CC(NC(=O)c1nc(=O)[nH][nH]1)c1ccc(OCC2CC2)c(F)c1` (stereo not given) | 10.56 |
| 64 | `CCn1nc(C)c(C(=O)NCc2csc(C3CC3)n2)c1C` | 18.99 |
| 65 | `CCCS(=O)(=O)N1C[C@@H](c2ccccc2)[C@@]2(CCNC2=O)C1` | 0.5168 |
| 66 | `CN1CCN(Cc2cccnc2)C2(CCN(C3CCOCC3)C2)C1=O` (stereo not given) | 0 |
| 67 | `CCCc1nc(C)c(C(=O)NCC2CCN(C3CC3)C2)s1` (stereo not given) | 1.748 |
| 68 | `COc1ncccc1C1CC(=O)NCc2nc3sccn3c21` (stereo not given) | 12.06 |
| 69 | `CCn1ccnc1CN1CCN(c2ncnc3ccsc23)CC1C` (stereo not given) | 9.926 |
| 70 | `O=S(=O)(c1cccs1)N1CCC(c2nc(-c3cccs3)no2)CC1` | 2.174 |
| 71 | `CC(C)(C)C(=O)N1CCN(Cn2nccc2-c2cccnc2)CC1` | -1.37 |
| 72 | `Cc1noc(CCCNC(=O)CNC(=O)c2cc3ccccc3[nH]2)n1` | 10.97 |
| 73 | `O=C(CN1CCCCC1Cn1cncn1)NCCc1ccc(F)cc1` (stereo not given) | -1.408 |
| 74 | `CN(C)CCN1CCC2(CC1)CN(Cc1cccnc1)C(=O)CO2` | 18.09 |
| 75 | `CN1CCN(C(=O)c2ccc3c(c2)nc(N2CCOCC2)n3C)CC1=O` | 7.649 |
| 76 | `c1coc(CN2CCc3onc(Cn4ccnc4)c3C2)c1` | -9.273 |
| 77 | `COc1ccc(Cl)cc1NCC(=O)N(Cc1ccncc1)C1CC1` | 5.753 |

For reference, 8 entries once more:

{"compound": "CS(=O)(=O)N1CCOCC12CCN(Cc1ccoc1)CC2", "Inhibition": 13.11}
{"compound": "COCc1nn(C(C)C)c2c1CCN(Cc1cccs1)C2", "Inhibition": 12.5}
{"compound": "COc1cccc(C(=O)N2CCCC(c3cc(C)[nH]n3)C2)c1OC", "stereo": "stereo not given", "Inhibition": 13.07}
{"compound": "Cn1ncnc1CNC(=O)N(CCCO)C1CCc2ccccc21", "stereo": "stereo not given", "Inhibition": 18.57}
{"compound": "c1coc(CN2CCc3onc(Cn4ccnc4)c3C2)c1", "Inhibition": -9.273}
{"compound": "O=c1n(CCNCc2ccc(-c3ccccc3)cc2)nc2ccccn12", "Inhibition": 25.5}
{"compound": "O=S(=O)(c1cccs1)N1CCC(c2nc(-c3cccs3)no2)CC1", "Inhibition": 2.174}
{"compound": "Cc1ncc(C)c(N2CCC(Cc3ccc(Cl)cc3)(C(=O)O)CC2)n1", "Inhibition": 26.98}